Test results published in paper PMC2927601.
No constants are given. Whether binding was seen depends on the method and setting. In cells and extracts the contact can be indirect. Some results given as binding are weak or reduced against the parent protein; the word gives no strength.

The chains behind the UniProt entries cited, without tags or fusion partners. Where a name states a change or a piece, a line headed by the entry shows the natural chain unless it says otherwise.
UniProt O75340: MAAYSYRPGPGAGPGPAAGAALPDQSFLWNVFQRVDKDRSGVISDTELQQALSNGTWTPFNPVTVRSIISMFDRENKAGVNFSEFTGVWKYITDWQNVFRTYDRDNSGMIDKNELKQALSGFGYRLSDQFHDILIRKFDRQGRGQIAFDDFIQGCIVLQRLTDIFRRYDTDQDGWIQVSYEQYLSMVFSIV

Assays:
[1] = molecular target: GST-fused ALG-2 F122A mutant (human) (UniProt O75340); experiment: pull-down; GST-fused ALG-2 proteins on glutathione Sepharose beads, cleared lysates of HEK293 cells; pulldown products analysed by Western blotting with specific antibodies; as described previously [40]; only the target purified
[2] = molecular target: GST-fused ALG-2, wild type (human) (UniProt O75340); experiment: as above

binding [1]: binds | binding [2]: binds
B1: annexin A7, endogenous protein (protein, UniProt P20073 1-488)
chain: MSYPGYPPTGYPPFPGYPPAGQESSFPPSGQYPYPSGFPPMGGGAYPQVPSSGYPGAGGYPAPGGYPAPGGYPGAPQPGGAPSYPGVPPGQGFGVPPGGAGFSGYPQPPSQSYGGGPAQVPLPGGFPGGQMPSQYPGGQPTYPSQINTDSFSSYPVFSPVSLDYSSEPATVTQVTQGTIRPAANFDAIRDAEILRKAMKGFGTDEQAIVDVVANRSNDQRQKIKAAFKTSYGKDLIKDLKSELSGNMEELILALFMPPTYYDAWSLRKAMQGAGTQERVLIEILCTRTNQEIREIVRCYQSEFGRDLEKDIRSDTSGHFERLLVSMCQGNRDENQSINHQMAQEDAQRLYQAGEGRLGTDESCFNMILATRSFPQLRATMEAYSRMANRDLLSSVSREFSGYVESGLKTILQCALNRPAFFAERLYYAMKGAGTDDSTLVRIVVTRSEIDLVQIKQMFAQMYQKTLGTMIAGDTSGDYRRLLLAIVGQ
